Patent US20050013820A1 (REGENTS OF THE UNIVERSITY OF MICHIGAN, published 2005)
Results are given in words; binding and its absence hold for the method and conditions named. Some results given as binding are weak or reduced against the parent protein; the word gives no strength.

Key:
[1] = molecular target: T1, recombinant human calreticulin (human, UniProt P27797 18-417); assay: peptide-Sepharose affinity column, immunoblot of eluate (FIG. 13A)
T1 construct: Expressed in E. coli as a GST fusion; also called Crt; purified recombinant calreticulin
T1 sequence: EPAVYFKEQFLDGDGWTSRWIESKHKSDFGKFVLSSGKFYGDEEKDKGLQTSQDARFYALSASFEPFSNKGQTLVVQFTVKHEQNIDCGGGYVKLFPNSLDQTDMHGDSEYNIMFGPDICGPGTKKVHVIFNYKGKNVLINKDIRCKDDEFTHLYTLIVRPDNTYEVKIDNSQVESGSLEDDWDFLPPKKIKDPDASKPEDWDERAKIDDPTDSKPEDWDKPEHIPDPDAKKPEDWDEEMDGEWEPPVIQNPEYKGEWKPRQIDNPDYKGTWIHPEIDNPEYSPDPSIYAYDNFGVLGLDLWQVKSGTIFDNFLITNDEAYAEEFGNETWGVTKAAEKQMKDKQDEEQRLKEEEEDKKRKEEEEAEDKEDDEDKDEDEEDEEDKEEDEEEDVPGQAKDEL

[2] = molecular target: T1, recombinant human calreticulin; assay: figure legend FIG. 13A: peptide affinity chromatography, immunoblot
[3] = molecular target: T1, recombinant human calreticulin; assay: SPR (Biacore), calreticulin immobilized on CM5 (FIG. 15 legend)
[4] = molecular target: T1, recombinant human calreticulin; assay: SPR competition (FIG. 16 legend)
[5] = molecular target: T1, recombinant human calreticulin; assay: SPR (Biacore 2000), calreticulin immobilized on CM5
[6] = molecular target: T1, recombinant human calreticulin; assay: SPR competition on immobilized calreticulin; competitors 65-78*0401 and 65-78*0404; IC50 number not given
[7] = molecular target: T1, recombinant human calreticulin; assay: restated in Example 14 (SPR results of Examples 12-13)
[8] = molecular target: T1, recombinant human calreticulin; assay: SPR (Biacore), control competition with QKRAE
[9] = molecular target: T1, recombinant human calreticulin; assay: SPR (Biacore), peptide immobilized on CM5, recombinant calreticulin in the flow phase (FIG. 13B)
[10] = molecular target: T1, recombinant human calreticulin; assay: figure legend FIG. 13B: surface plasmon resonance profiles

B1: peptide 65-78*0404 (peptide)
peptide: KDLLEQRRAAVDTY
binding [1]: binds
binding [2]: binds

B2: pentapeptide QKRAA (peptide)
peptide: QKRAA
binding [3]: binds

B3: pentapeptide QRRAA (peptide)
peptide: QRRAA
binding [3]: binds

B4: pentapeptide QKRLA (peptide)
peptide: QKRLA
binding [3]: binds

B5: pentapeptide QKCLA (peptide)
peptide: QKCLA
binding [3]: binds

B6: pentapeptide DKCLA (peptide)
peptide: DKCLA
binding [4]: binds
binding [5]: binds
binding [6]: binds
binding [7]: binds

B7: peptide 65-79*0401 (peptide)
peptide: KDLLEQKRAAVDTYC
binding [8]: binds
binding [9]: binds
binding [10]: binds

B8: peptide 65-79*0404 (peptide)
peptide: KDLLEQRRAAVDTYC
binding [9]: binds
binding [10]: binds
